From patent US9532994B2, “Agents and methods for enhancing bone formation by oxysterols in combination with bone morphogenic proteins” (THE REGENTS OF THE UNIVERSITY OF CALIFORNIA, priority 2003, dated 2017)

What was measured:
[1] = test system: M2-10B4 mouse marrow stromal cell line; experiment: Alkaline phosphatase (ALP) activity assay in M2 cells; format: cell-based; conditions: with 22R+20S (2.5 μM each), 3 days; SC 10 μM, ACA 25 μM, MC 20 μM (FIGS. 9A, 9E)
Procedure: Cells: M2-10B4 mouse marrow stromal cell line obtained from American Type Culture Collection (ATCC, Rockville, Md., U.S.A.) was derived from bone marrow stromal cells of a (C57BL/6J×C3H/HeJ) F1 mouse, and support human and murine myelopoiesis in long-term cultures (as per ATCC) and have the ability to differentiate into osteoblastic and adipocytic cells. Unless specified, these cells were cultured in RPMI 1640 containing 10% heat-inactivated FBS, and supplemented with 1 mM sodium pyruvate, 100 U/ml penicillin, and 100 […] (all from Irvine Scientific). […]
Test 1: M2 cells at confluence were treated with control vehicle (C), or 10 μM oxysterols, in an osteogenic medium consisting of RPMI 1640 to which 10% fetal bovine serum (FBS), 50 μg/ml ascorbate and 3 mM beta-glycerophosphate (βGP) were added. After 3 days of incubation, alkaline phosphatase (ALP) activity was determined in cell homogenates by a calorimetric assay. […]
M2 cells at confluence were treated in osteogenic medium with control vehicle (C) or a combination of 22R and 20S oxysterols, at the indicated concentrations. ALP activity was measured after 3 days as described above. […]
Test 2: M2 cells were grown in RPMI medium containing 10% fetal bovine serum (FBS). […] After 4 days, alkaline phosphatase activity was determined in whole cell lysates and normalized to protein. […]

[2] = test system: M2-10B4 mouse marrow stromal cell line; experiment: Matrix mineralization in M2 cells (von Kossa staining, 45Ca incorporation assay); format: cell-based; conditions: with 22R+20S (2.5 μM each), 10 days, 45Ca incorporation (FIGS. 9B, 9F)
Procedure: Cells: M2-10B4 mouse marrow stromal cell line obtained from American Type Culture Collection (ATCC, Rockville, Md., U.S.A.) was derived from bone marrow stromal cells of a (C57BL/6J×C3H/HeJ) F1 mouse, and support human and murine myelopoiesis in long-term cultures (as per ATCC) and have the ability to differentiate into osteoblastic and adipocytic cells. Unless specified, these cells were cultured in RPMI 1640 containing 10% heat-inactivated FBS, and supplemented with 1 mM sodium pyruvate, 100 U/ml penicillin, and 100 […] (all from Irvine Scientific).
Von Kossa and oil red O staining—Matrix mineralization in cell monolayers was detected by silver nitrate staining as previously described. […]
^45Ca incorporation assay—Matrix mineralization in cell monolayers was quantified using the ^45Ca incorporation assay as previously described. […]
M2 cells were treated with control vehicle (C) or a combination of 22R and 20S oxysterols at increasing concentrations. After 14 days, matrix mineralization in cultures was quantified using a ^45Ca incorporation assay. […]
(§1) (A) M2 cells at confluence were pretreated for 4 hours with control vehicle (C) or 10 μM COX-1 inhibitor SC-560 (SC) in osteogenic medium as described earlier. […] After 3 days, ALP activity was measured as described earlier. […] After 3 days, ALP activity was measured as previously described. […]

[3] = test system: osteocalcin mRNA in M2 cells; experiment: Northern blotting for osteocalcin mRNA in M2 cells; format: cell-based, mouse; conditions: 20 μM SC with 22R+20S, 8 days (FIGS. 9C and 9D)
Procedure: RNA isolation and Northern blot analysis - Following treatment of cells under appropriate experimental conditions, total RNA was isolated using the RNA isolation kit from Stratagene (La Jolla, Calif., U.S.A.). Total RNA ([…]) was run on a 1% agarose/formaldehyde gel and transferred to Duralon-UV membranes (Strategene, CA, U.S.A.) and cross-linked with UV light. The membranes were hybridized overnight at 60° C. with ^32P-labeled mouse osteocalcin cDNA probe, mouse lipoprotein lipase (LPL), mouse adipocyte protein 2 (aP2) PCR-generated probes, human 28S or 18S rRNA probes obtained from Geneka Biotechnology (Montreal, Quebec, Canada) and Maxim Biotech (San Francisco, CA, U.S.A.), respectively. […] The extent of gene induction was determined by densitometry.
M2 cells at confluence were treated with control vehicle (C) or a combination of 22R and 20S oxysterols (5 μM each) in osteogenic medium. After 4 and 8 days, total RNA from duplicate samples was isolated and analyzed for osteocalcin (Osc) and 28S rRNA expression by Northern blotting as described. […]
as §1

marrow stromal cells = experiment: Osteogenic activity/effects of oxysterol combinations in marrow stromal cells, readout not specified; format: cell-based, mouse; conditions: SC-560 at 1-20 μM, M2 cells

`COc1ccc(-n2nc(C(F)(F)F)cc2-c2ccc(Cl)cc2)cc1` [SC-560] was tested, and the “inhibition of oxysterol-induced alkaline phosphatase activity” value [1] was “inhibited”, the “inhibition of oxysterol-induced mineralization” value [2] was “inhibited” and the “inhibition of oxysterol-induced osteocalcin gene expression” value [3] was “inhibited”. For the same compound, the “inhibition of osteogenic effects of the 22R+20S and 22S+20S oxysterol combinations” value (marrow stromal cells) was “significantly inhibited”.
